Reference: patent US20050042293A1, “Polymeric systems for drug delivery and uses thereof” (The University of British Columbia, priority 1997, published 2005)
Some results were stated once for a whole list of compounds, not compound by compound. For at least one compound, name, drawing or mass did not settle the structure.

How the values were obtained:
[1] = Drug-dependent solidification: time for paste pellets to break up under stirring at 300 rpm at 37° C.; format: physicochemical; details: 10% w/w drug in 40:60 (TB:MePEG350) paste; 1 hour at 37° C. then 300 rpm
[2] = Water solubility studies by the present inventors

C[C@@H]1[C@H](O)[C@@H](C)/C=C/C=C/CC/C=C/C=C/C=C/C=C/C(O[C@H]2O[C@H](C)[C@@H](O)[C@H](N)[C@@H]2O)CC2O[C@](O)(CC(O)C(O)CCC(O)CC(O)CC(O)CC(=O)O[C@H]1C)CC(O)C2C(=O)O (some centres unmarked) [nystatin]
time paste pellet stayed intact under stirring [1]: over 4 minutes | water solubility [2]: less than 2 μg/mL
